From patent publication US20240400691A1 (FBD BIOLOGICS, published 2024)
Results are given in words; binding and its absence hold for the method and conditions named. Some binding calls cover weakened binding; strength is not graded here.

By UniProt entry, the sequences of proteins in these tests, tags left out. Residues count along the entry.
UniProt Q9NZQ7, residues 19-290: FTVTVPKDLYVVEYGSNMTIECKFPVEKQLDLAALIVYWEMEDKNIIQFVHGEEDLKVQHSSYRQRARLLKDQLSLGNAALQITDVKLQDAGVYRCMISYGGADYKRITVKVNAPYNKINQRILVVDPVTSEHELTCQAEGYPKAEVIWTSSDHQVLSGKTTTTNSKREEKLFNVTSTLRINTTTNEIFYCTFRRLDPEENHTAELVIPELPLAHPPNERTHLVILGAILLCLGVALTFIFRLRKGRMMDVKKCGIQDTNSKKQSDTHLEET

How the values were obtained:
human PD-L1 [1] = target: T1, human PD-L1 (human, UniProt Q9NZQ7 19-290); experiment: flow cytometry on PD-L1 tf CHO-S cells; positive control
T1 construct: whole, on cells; For the PD-L1 tf DLD1 cells the species of PD-L1 is not restated; also called PD-L1 tf CHO-S; PD-L1 tf DLD1

human PD-L1 [2] = target: T1, human PD-L1; experiment: flow cytometry on a 1:1 mixture of PD-L1 tf DLD1 cells and DLD1 cells
human PD-L1 [3] = target: T1, human PD-L1; experiment: flow cytometry on PD-L1 tf DLD1 cells in a 1:1 mixture with DLD1 cells, PE goat anti-human IgG [D]

Measured: binding

B1: anti-PD-L1 VHH (2H4) (VHH)
VHH: QVQLVESGGGVVQPGRSLRLSCAASGGPFMSYAMGWFRQAPGKEREFVAAIRWNGISTFYADSVKGRFTISRDNSKNTLYLQMNSLRAEDTAVYYCAAAQTIVTVPENYHFDYWGQGTQVTVSS
binds: all assays above
